For at least one compound, name, drawing or mass did not settle the structure.
Test system: MIP2-induced neutrophil emigration
Assay: Intravital microscopy of exteriorized cremaster superfused with MIP2
Format: in vivo
Conditions: wild-type mice; superfusion 60 min

## CN(CCOc1ccc(CC2SC(=O)NC2=O)cc1)c1ccccn1 (stereo not shown) [Rosiglitazone]
  neutrophil emigration induced by MIP2 in the presence of the substance: inhibited neutrophil recruitment to the same degree as GML

Reference: patent US9422335B2, “Modified toll-like receptor 2 (TLR2) ligands as inhibitors of neutrophil recruitment” (priority 2011, dated 2016)
